Source: doi:10.1371/journal.pone.0140310, primary screening data, rounded.

Drug key:
selumetinib (0.075 µM): Cn1cnc2c(F)c(Nc3ccc(Br)cc3Cl)c(C(=O)NOCCO)cc21
pazopanib (2 µM): Cc1ccc(Nc2nccc(N(C)c3ccc4c(C)n(C)nc4c3)n2)cc1S(N)(=O)=O
FH535 (5 µM): Cc1cc([N+](=O)[O-])ccc1NS(=O)(=O)c1cc(Cl)ccc1Cl
OSU-03012 (5 µM): NCC(=O)Nc1ccc(-n2nc(C(F)(F)F)cc2-c2ccc3c(ccc4ccccc43)c2)cc1
LFM-A13 (10 µM): C/C(O)=C(\C#N)C(=O)Nc1cc(Br)ccc1Br
dovitinib (0.5 µM): CN1CCN(c2ccc3nc(-c4c(N)c5c(F)cccc5[nH]c4=O)[nH]c3c2)CC1
tanespimycin (0.01 µM): C=CCNC1=C2C[C@@H](C)C[C@H](OC)[C@H](O)[C@@H](C)/C=C(\C)[C@H](OC(N)=O)[C@@H](OC)/C=C\C=C(/C)C(=O)NC(=CC1=O)C2=O
decitabine (0.5 µM): Nc1ncn([C@H]2C[C@H](O)[C@@H](CO)O2)c(=O)n1

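Human melanoma cell lines in 1,536-well plates were treated with two drugs together for 72 h, then fixed, stained and imaged. Values are the share of nuclei positive for cleaved PARP as a percentage of the same share in the DMSO control: 100 is the control level, higher means more apoptosis. Concentrations were fixed for each drug; these are the higher of two levels. The file gives one value for each pair and line, without errors, so small differences may be noise. The marker varies much from line to line, for technical or biological reasons.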
An unselected part of the screen is shown.
An entry leaves out what has no value listed here.

Pair: tanespimycin + dovitinib
WM1716: 131
MZ2-MEL: 462
IPC-298: 247
A375: 170

Pair: FH535 + pazopanib
WM1716: 45.2
MZ2-MEL: 31.5
IPC-298: 210
A375: 164

Pair: tanespimycin + LFM-A13
WM1716: 40.5
MZ2-MEL: 91.0
IPC-298: 358
A375: 122

Pair: dovitinib + OSU-03012
WM1716: 151
MZ2-MEL: 261
IPC-298: 343

Pair: dovitinib + FH535
WM1716: 43.2
MZ2-MEL: 143
IPC-298: 83.1
A375: 186

Pair: OSU-03012 + decitabine
WM1716: 140
MZ2-MEL: 119
IPC-298: 141

Pair: OSU-03012 + selumetinib
WM1716: 152
MZ2-MEL: 419
IPC-298: 245

Pair: selumetinib + tanespimycin
WM1716: 74.6
IPC-298: 418
A375: 54.4

Pair: OSU-03012 + pazopanib
WM1716: 78.2
MZ2-MEL: 125
IPC-298: 145

Pair: LFM-A13 + dovitinib
WM1716: 104
MZ2-MEL: 151
IPC-298: 185
A375: 146

Pair: tanespimycin + FH535
WM1716: 126
MZ2-MEL: 224
IPC-298: 86.4
A375: 251

Pair: LFM-A13 + decitabine
WM1716: 124
MZ2-MEL: 132
IPC-298: 62.8
A375: 74.8

Pair: OSU-03012 + FH535
WM1716: 68.1
MZ2-MEL: 111
IPC-298: 195
A375: 187

Pair: tanespimycin + decitabine
WM1716: 275
MZ2-MEL: 244
IPC-298: 304
A375: 49.0

Pair: decitabine + selumetinib
WM1716: 111
MZ2-MEL: 315
IPC-298: 180
A375: 218

Pair: pazopanib + LFM-A13
WM1716: 33.2
MZ2-MEL: 87.4
IPC-298: 86.8
A375: 87.6

Pair: dovitinib + selumetinib
WM1716: 226
MZ2-MEL: 726
IPC-298: 82.5
A375: 373

Pair: selumetinib + pazopanib
WM1716: 127
MZ2-MEL: 325
IPC-298: 87.2
A375: 77.8

Pair: FH535 + selumetinib
WM1716: 116
IPC-298: 147
A375: 392

Pair: pazopanib + dovitinib
WM1716: 24.8
MZ2-MEL: 174
IPC-298: 127
A375: 120

Pair: LFM-A13 + selumetinib
WM1716: 149
MZ2-MEL: 287
IPC-298: 184
A375: 303

Pair: tanespimycin + OSU-03012
WM1716: 75.1
MZ2-MEL: 118
IPC-298: 203

Pair: pazopanib + decitabine
WM1716: 63.1
MZ2-MEL: 211
IPC-298: 57.0
A375: 57.0

The last 2 entries again:

{"pair": "tanespimycin + OSU-03012", "WM1716": 75.1, "MZ2-MEL": 118, "IPC-298": 203}
{"pair": "pazopanib + decitabine", "WM1716": 63.1, "MZ2-MEL": 211, "IPC-298": 57.0, "A375": 57.0}